Assay results taken from article PMC4559378.

Protein sequences, listed by entry. Tags and fused reporters are not part of them.
UniProt Q28009: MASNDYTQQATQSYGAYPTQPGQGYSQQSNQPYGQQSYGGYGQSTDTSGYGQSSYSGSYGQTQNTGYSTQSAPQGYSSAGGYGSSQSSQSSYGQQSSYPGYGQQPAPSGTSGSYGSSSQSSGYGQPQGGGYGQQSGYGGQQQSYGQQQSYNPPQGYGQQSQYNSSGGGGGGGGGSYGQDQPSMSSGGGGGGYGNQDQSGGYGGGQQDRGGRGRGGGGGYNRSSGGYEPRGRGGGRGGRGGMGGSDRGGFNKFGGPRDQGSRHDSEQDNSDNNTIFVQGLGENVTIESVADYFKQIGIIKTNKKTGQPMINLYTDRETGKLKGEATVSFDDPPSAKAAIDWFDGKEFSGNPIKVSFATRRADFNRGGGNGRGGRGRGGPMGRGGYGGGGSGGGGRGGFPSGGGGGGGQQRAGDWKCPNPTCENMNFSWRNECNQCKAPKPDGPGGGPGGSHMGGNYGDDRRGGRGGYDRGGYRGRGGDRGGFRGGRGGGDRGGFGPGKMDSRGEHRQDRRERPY

Target: FUS (fused in sarcoma/translocated in liposarcoma), endogenous in bovine brain tissue (bovine (endogenous in bovine brain tissue)) (UniProt Q28009)
Assay: affinity purification with mass spectrometry; immunopurification with a FUS-specific monoclonal antibody from bovine brain tissue, coupled to mass spectrometry

- binding: binds
B1: HSP60, endogenous in bovine brain tissue (protein, UniProt P31081 27-573)
chain: AKDVKFGADARALMLQGVDLLADAVAVTMGPKGRTVIIEQSWGSPRVTKDGVTVAKSIDLKDKYKNIGAKLVQDVANNTNEEAGDGTTTATVLARSIAKEGFEKISKGANPVEIRRGVMLAVDAVIVELKKQSKPVTTPEEIAQVATISANGDKEIGNIISDAMKKVGRKGVITVKDGKTLNDELEIIEGMKFDRGYISPYFINTSKGQKCEFQDAYVLLSEKKISSVQSIVPALEIANAHRKPLVIIAEDVDGEALSTLVLNRLKVGLQVVAVKAPGFGDNRKNQLKDMAIATGGAVFGEEGLNLNLEDVQPHDLGKVGEVIVTKDDAMLLKGKGDKAQIEKRIQEIIEQLDITTSEYEKEKLNERLAKLSDGVAVLKVGGTSDVEVNEKKDRVTDALNATRAAVEEGIVLGGDCALLRCIPALESITPANEDQKTGIEIIKKTLKIPAMTIAKNAGVEGSLIVEKIMQSSSEVGYDAMLGDFVNMVEKGIIDPTKVVRTALLDAAGVASLLTTAEVVVTEIPKEEKDPGMGGMGGMGGGMGGGMF

Results are given in words; binding and its absence hold for the method and conditions named. Binding seen in cells or lysates may run through a third protein. Here binding means that the protein was enriched with, or labelled near, the bait; the list need not be complete.
